The values below come from publication doi:10.1101/2023.04.17.537183.

Protein sequences, listed by entry. Tags and fused reporters are not part of them. Lines headed by an entry give the natural chain unless they say otherwise; changes in a name come on top.
UniProt Q8SY69: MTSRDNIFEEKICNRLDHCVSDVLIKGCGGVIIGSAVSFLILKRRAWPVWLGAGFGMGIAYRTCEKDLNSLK
UniProt Q5XKP0: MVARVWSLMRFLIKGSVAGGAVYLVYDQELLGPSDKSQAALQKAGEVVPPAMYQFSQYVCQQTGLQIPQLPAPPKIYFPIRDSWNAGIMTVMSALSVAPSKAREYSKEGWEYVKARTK

These are yes or no findings as the source states them, for the method shown. In cells and extracts the contact can be indirect. Binding calls can cover weak binding; strength is not graded here.

Test in all cases: co-IP
For assay [1], the target named is T1, DmMIC60 (Mitofilin/Dmel_CG6455) (D. melanogaster (endogenous in flies)) (UniProt P91928).
T1 sequence: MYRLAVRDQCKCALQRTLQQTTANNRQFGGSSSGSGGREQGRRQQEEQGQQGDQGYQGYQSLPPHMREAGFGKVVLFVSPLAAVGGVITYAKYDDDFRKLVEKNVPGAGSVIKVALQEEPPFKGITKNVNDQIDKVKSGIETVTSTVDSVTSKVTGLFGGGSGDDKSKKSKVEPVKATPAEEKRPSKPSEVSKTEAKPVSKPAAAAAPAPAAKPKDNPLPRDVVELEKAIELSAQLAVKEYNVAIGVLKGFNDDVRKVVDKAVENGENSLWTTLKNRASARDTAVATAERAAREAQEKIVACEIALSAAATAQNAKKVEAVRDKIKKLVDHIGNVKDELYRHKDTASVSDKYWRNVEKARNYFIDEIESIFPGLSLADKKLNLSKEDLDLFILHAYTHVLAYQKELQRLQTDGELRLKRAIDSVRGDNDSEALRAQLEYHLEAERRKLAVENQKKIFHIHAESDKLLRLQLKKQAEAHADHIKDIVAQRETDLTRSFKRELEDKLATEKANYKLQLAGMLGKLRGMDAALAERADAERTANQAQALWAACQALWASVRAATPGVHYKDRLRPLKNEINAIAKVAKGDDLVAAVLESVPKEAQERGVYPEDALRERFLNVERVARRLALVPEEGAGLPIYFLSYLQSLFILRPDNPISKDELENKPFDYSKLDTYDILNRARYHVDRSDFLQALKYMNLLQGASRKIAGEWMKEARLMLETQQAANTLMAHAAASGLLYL

The target in assay [2] is Dmel_CG41128-FLAG (DmMIC10b-FLAG) (D. melanogaster) (UniProt Q8SY69).
The target of assay [3] is Dmel_CG41128/MINOS1b/DmMIC10b (D. melanogaster (endogenous in flies)) (UniProt Q8SY69).

As for “Dmel_CG41128/MINOS1b/DmMIC10b (from UniProt Q8SY69)”, the binding result in assay [1] is on record as “binds”.

“MIC13 (human, HeLa) (from UniProt Q5XKP0 1-118)”: the binding entry in assay [2] is on record as “binds”.

B1: DmMIC60 (Mitofilin/Dmel_CG6455) (protein, UniProt P91928 1-739)
chain: T1 sequence
For B1, the binding result in assay [3] was “binds”.

B2: DmMIC13 (QIL1/Dmel_CG760) (protein, UniProt Q9VVH3 1-122)
chain: MVLGFLVRGGLVAATVYYTQKVGIWGDSDQTDKLYNDIKSELRPHVQKLEKQLPFEVPQLPKTGEMRFLAKHYYNEGVKNTFRFIHMLPCYAGRGLKKVKDTFQDFAQSPAIAGGAESSPPK
Turning to B2, the binding entry in assay [3] is “binds”.
